PubChem BioAssay AID602196, INSERM, 2012
Assay: 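Knock-downs that protect lung cancer cells from cisplatin or sensitise them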. Cell system: human A549 lung cancer cells. Knock-down reagent: siRNA pair against human genes. Time to read-out: 48 h transfection before cisplatin; time from cisplatin to read-out not stated. Challenge: cisplatin at a dose killing half of control-siRNA cells; exact dose and duration not given. Measured: 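Cisplatin cell death as a shift from the 50% death seen with control siRNA; siRNAs toxic or growth-blocking alone scored 0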. Reading the numbers: two-siRNA summed score (-2 to +2): higher = both siRNAs protect from cisplatin killing; -2 means both sensitise; mean protection from cisplatin (shift in death) and protection from cisplatin (shift in death), siRNA C and protection from cisplatin (shift in death), siRNA D: higher = protection from cisplatin killing. Call rule: 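Each siRNA scores 0 if harmful alone by LDH or WST-1, otherwise +1 if it reduces and -1 if it increases cisplatin killing; a gene is active when both siRNAs agree (sum +2 or -2)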. Calls: active = both siRNAs shift cisplatin killing the same way; inactive = no consistent shift, or siRNA harmful alone.
Shown is an unselected part of about 23,000 deposited reagents. 455 of them (2%) count as active. 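Active includes both protection and sensitisation; some change values fall well beyond the stated -50 to +50 range.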 The record does not give: the amount of reagent.

Target gene | two-siRNA summed score (-2 to +2) | mean protection from cisplatin (shift in death) (%) | protection from cisplatin (shift in death), siRNA C (%) | protection from cisplatin (shift in death), siRNA D (%) | outcome
KANSL1 | 0 | -5 | -17 | 7 | inactive
WDR25 | 0 | 2.2 | 4.5 | 0 | inactive
TFEB | -1 | -10.6 | -13.3 | -7.9 | inactive
HLA-DQB2 | 0 | 5.1 | 11.2 | -0.9 | inactive
RNF166 | 0 | 0.8 | 2 | -0.5 | inactive
ATRX | -1 | -5.5 | -4.6 | -6.3 | inactive
KDSR | 0 | -3.7 | -11.9 | 4.4 | inactive
SERPINB10 | 1 | 15.5 | 13 | 18 | inactive
LOC441598 | 1 | 13.2 | 13.2 | 13.1 | inactive
LOC439992 | 0 | 25.8 | 18.8 | 32.8 | inactive
LIPC | -1 | -13.2 | -39.1 | 12.7 | inactive
SGCB | 0 | -1.4 | -1.9 | -0.9 | inactive
MCFD2 | 1 | 10.3 | 18 | 2.5 | inactive
WDFY1 | -1 | -14.7 | -25.3 | -4 | inactive
SACK1E | 0 | 1 | -11.9 | 13.8 | inactive
LOC400729 | 1 | 16.1 | 12.1 | 20.1 | inactive
JARID2 | 1 | 14.8 | 33.1 | -3.4 | inactive
LINC01120 | 0 | 7.1 | 13.8 | 0.5 | inactive
PIK3CG | 1 | 7.3 | -1.9 | 16.6 | inactive
ARHGAP18 | 0 | -12 | -13.2 | -10.9 | inactive
CELF6 | 0 | -8.7 | -14.4 | -3 | inactive
ZNF583 | 0 | -1.3 | 7 | -9.6 | inactive
PRDM13 | -1 | -9.1 | 3.9 | -22.2 | inactive
